# From paper PMC7819943, “Rice protein-binding microarrays: a tool to detect cis-acting elements near promoter regions in rice”
# The list shows a part of the results.
# Biological target: T1, OsSMF1 (Oryza sativa, UniProt Q6ZLB0 1-436)
# T1 sequence: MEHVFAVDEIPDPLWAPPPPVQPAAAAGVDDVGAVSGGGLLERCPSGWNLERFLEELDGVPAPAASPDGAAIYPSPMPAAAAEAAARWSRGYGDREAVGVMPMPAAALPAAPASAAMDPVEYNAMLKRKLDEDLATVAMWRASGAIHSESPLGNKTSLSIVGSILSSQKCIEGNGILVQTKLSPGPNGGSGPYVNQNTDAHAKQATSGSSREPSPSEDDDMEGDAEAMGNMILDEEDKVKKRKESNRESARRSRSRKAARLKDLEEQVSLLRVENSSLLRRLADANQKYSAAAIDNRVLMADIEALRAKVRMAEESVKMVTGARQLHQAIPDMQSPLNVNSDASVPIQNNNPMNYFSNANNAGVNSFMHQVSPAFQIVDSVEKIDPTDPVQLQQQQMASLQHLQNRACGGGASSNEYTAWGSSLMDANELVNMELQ
# Assay: protein-binding microarray (RPBM); PBS, 2% BSA, 51.3 ng/ul salmon testes DNA, 50 uM zinc acetate, 200 nM TF, 25 C, 1 h; high values mean tight binding
# Conditions: protein: recombinant; tags: N-terminal polyhistidine and DsRed monomer fusion (pET32a); chain copies: 2; label: CyDye5-dUTP incorporated in the synthesized complementary strand; 3' TTTTT single-stranded linker to array surface; dsDNA, one strand shown
# In short: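 In PBS with 2% BSA, salmon testes DNA and 50 µM zinc acetate, 200 nM protein was incubated on a custom Agilent array at 25 °C for 1 h and then washed off. The array had been made double-stranded by primer extension with Cy5-dUTP and blocked with 2% BSA. The proteins were transcription factors fused N-terminally to polyhistidine and DsRed, expressed in E. coli BL21-CodonPlus and purified on Ni–NTA. The binding signal is per-feature fluorescence intensity (arbitrary units) from an Axon 4000B scanner.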
row,Sequence,binding signal
1,TCAATCTGCTTACACGCCTTTCTTGTTAGTGCTATAGGTTCGGAGTCACCTAGTGCAG,3330 fluorescence intensity (a.u.)
2,TGCGGTTTTAACCTCGTCCAGGTGGCCATTTCTATCCAGGCGGAGTCACCTAGTGCAG,4670 fluorescence intensity (a.u.)
3,ATAACTGCACCACACGCGCTTACTCATCTCTCTCAACACGCGGAGTCACCTAGTGCAG,5490 fluorescence intensity (a.u.)
4,GTACCTTCGACGCTTCGCCTTGTCAGTCACTGTCCCCTTCCGGAGTCACCTAGTGCAG,5320 fluorescence intensity (a.u.)
5,CACCCAAATGACGCACGACGCAGCGTGAGCACTGGCAAACCGGAGTCACCTAGTGCAG,3820 fluorescence intensity (a.u.)
6,AACTAATGAATAGTGTGACGTATTGCCGAAATTTCTCAACCGGAGTCACCTAGTGCAG,7380 fluorescence intensity (a.u.)
7,CTATCTATACATGACACGCCCCGTCTCCCTCCTTGCTTGACGGAGTCACCTAGTGCAG,3990 fluorescence intensity (a.u.)
8,ATACGATACCATAGGTATGTCAGCATGATATATATGTACTCGGAGTCACCTAGTGCAG,3890 fluorescence intensity (a.u.)
9,GCACCCATATGCAGCTCCGCCTGAATGCCGTCTCCGCACACGGAGTCACCTAGTGCAG,19700 fluorescence intensity (a.u.)
10,GAGTGCAGGTCACACAGATACGATCCACACAATAGAGAGACGGAGTCACCTAGTGCAG,4590 fluorescence intensity (a.u.)
11,GAGCCTCCTCCACGCCACGTCAGCCTCTTCGGTGACGACCCGGAGTCACCTAGTGCAG,17000 fluorescence intensity (a.u.)
12,AACTAAGTGGCCGGCGTTAGGTAAGACGAGGACAGGCTCGCGGAGTCACCTAGTGCAG,26100 fluorescence intensity (a.u.)
13,ATATATATGTATACGTACGTACGTACGTATGTATGTATGTCGGAGTCACCTAGTGCAG,3510 fluorescence intensity (a.u.)
14,CCAAACCAATCAAACGCATTCTATCCTAGTTGGCATAACCCGGAGTCACCTAGTGCAG,4040 fluorescence intensity (a.u.)
15,AAACCCTCCCCTCTCCGCGAACCCTAACACCATCCGGCGGCGGAGTCACCTAGTGCAG,3550 fluorescence intensity (a.u.)
16,CTAACATGTGGGGTGGGTCACACCTTGACTCAGCGTGGTTCGGAGTCACCTAGTGCAG,8940 fluorescence intensity (a.u.)
17,CATCCGCCATCTCATCTAATCTCATCCGTCCATCGCTATCCGGAGTCACCTAGTGCAG,3680 fluorescence intensity (a.u.)
18,AGACTGGGTACACATTAAGAATTCCCATAAATCTTCATAGCGGAGTCACCTAGTGCAG,37900 fluorescence intensity (a.u.)
19,CTTGTTTGATCAAACCGATGCGACGCAGAGAGAGAGAGGTCGGAGTCACCTAGTGCAG,39400 fluorescence intensity (a.u.)
20,ATCTTTTGGGATGACGTGTTCTCACTTGCATCTTTCCAATCGGAGTCACCTAGTGCAG,10400 fluorescence intensity (a.u.)
21,AAATCGTTTCTTTGATGTGGCATGAAGGGACGAGTCGGAGCGGAGTCACCTAGTGCAG,4280 fluorescence intensity (a.u.)
22,GCCACACATTGCATCATCTACTGTAGGACTAAATCAATCTCGGAGTCACCTAGTGCAG,4770 fluorescence intensity (a.u.)
23,TGGAAGCTGCTGGGAAGCCCTTCTAAAAGAAGGAAGGATCCGGAGTCACCTAGTGCAG,24000 fluorescence intensity (a.u.)
24,AGTTTTAGTATATACGACATTACGGTGAGTAATAATAAGACGGAGTCACCTAGTGCAG,33600 fluorescence intensity (a.u.)
25,CAGATTTTAACTTGTATGTTTGCGAAAAGATATATCATATCGGAGTCACCTAGTGCAG,17300 fluorescence intensity (a.u.)
26,GAGAGAGAGAGAGGGATTTCCCCTTGGCTCCGCGTCGATACGGAGTCACCTAGTGCAG,3520 fluorescence intensity (a.u.)
27,TCGGAGTTTGTGAACATAAAGAATAATTGTATTGGAAATACGGAGTCACCTAGTGCAG,31800 fluorescence intensity (a.u.)

# Some of the entries above in another layout.
row	Sequence	binding signal
1	TCAATCTGCTTACACGCCTTTCTTGTTAGTGCTATAGGTTCGGAGTCACCTAGTGCAG	3330 fluorescence intensity (a.u.)
2	TGCGGTTTTAACCTCGTCCAGGTGGCCATTTCTATCCAGGCGGAGTCACCTAGTGCAG	4670 fluorescence intensity (a.u.)
3	ATAACTGCACCACACGCGCTTACTCATCTCTCTCAACACGCGGAGTCACCTAGTGCAG	5490 fluorescence intensity (a.u.)
4	GTACCTTCGACGCTTCGCCTTGTCAGTCACTGTCCCCTTCCGGAGTCACCTAGTGCAG	5320 fluorescence intensity (a.u.)
5	CACCCAAATGACGCACGACGCAGCGTGAGCACTGGCAAACCGGAGTCACCTAGTGCAG	3820 fluorescence intensity (a.u.)
6	AACTAATGAATAGTGTGACGTATTGCCGAAATTTCTCAACCGGAGTCACCTAGTGCAG	7380 fluorescence intensity (a.u.)
7	CTATCTATACATGACACGCCCCGTCTCCCTCCTTGCTTGACGGAGTCACCTAGTGCAG	3990 fluorescence intensity (a.u.)
8	ATACGATACCATAGGTATGTCAGCATGATATATATGTACTCGGAGTCACCTAGTGCAG	3890 fluorescence intensity (a.u.)
9	GCACCCATATGCAGCTCCGCCTGAATGCCGTCTCCGCACACGGAGTCACCTAGTGCAG	19700 fluorescence intensity (a.u.)
10	GAGTGCAGGTCACACAGATACGATCCACACAATAGAGAGACGGAGTCACCTAGTGCAG	4590 fluorescence intensity (a.u.)
11	GAGCCTCCTCCACGCCACGTCAGCCTCTTCGGTGACGACCCGGAGTCACCTAGTGCAG	17000 fluorescence intensity (a.u.)
12	AACTAAGTGGCCGGCGTTAGGTAAGACGAGGACAGGCTCGCGGAGTCACCTAGTGCAG	26100 fluorescence intensity (a.u.)
13	ATATATATGTATACGTACGTACGTACGTATGTATGTATGTCGGAGTCACCTAGTGCAG	3510 fluorescence intensity (a.u.)

# Next part:

row,Sequence,binding signal
1,ATATTATATTAAATTTGTAGTTTTACGATAATATGGTAAACGGAGTCACCTAGTGCAG,25400 fluorescence intensity (a.u.)
2,CGAGTTTGTTTCCTGCTGTCTGTGCGATAATGTTTTCTGCCGGAGTCACCTAGTGCAG,33300 fluorescence intensity (a.u.)
3,CCTGAAGTTCTAGATGTTGATTTTGTCATGATGATCTAATCGGAGTCACCTAGTGCAG,4580 fluorescence intensity (a.u.)
4,GGGATTTCATACTAGATGTCAGCAATTCTTGCAGCATCTCCGGAGTCACCTAGTGCAG,4770 fluorescence intensity (a.u.)
5,GGAAACACCAATATGAATATGATGTGGGCAACTCAAGGCCCGGAGTCACCTAGTGCAG,3840 fluorescence intensity (a.u.)
6,CACACCCTAACTAGTGTGTGACGCGACTGGCACAGCCTTCCGGAGTCACCTAGTGCAG,4310 fluorescence intensity (a.u.)
7,CATACCAACTCCATCATCTGCTGTCACGTTTGGTCGACGCCGGAGTCACCTAGTGCAG,3540 fluorescence intensity (a.u.)
8,GGTTCCTAACTTCCCTCACTCGTTTTCCGCGCTCACACTTCGGAGTCACCTAGTGCAG,3590 fluorescence intensity (a.u.)
9,AAACCGGTTTGATGACTTGATGTCGTCGTTTCATTGGTCACGGAGTCACCTAGTGCAG,3660 fluorescence intensity (a.u.)
10,TGAGCTGAGCTCTTCTCTAGCTCATCTTCTTGGTGGATCTCGGAGTCACCTAGTGCAG,3640 fluorescence intensity (a.u.)
11,GGATGGTTTACACGTCGCTCCTCATTCCGGCTCCTCGCGTCGGAGTCACCTAGTGCAG,4160 fluorescence intensity (a.u.)
12,AAGGCTCGCGAATACGCGGCGTCCACGCATCGGAACTCGGCGGAGTCACCTAGTGCAG,3330 fluorescence intensity (a.u.)
13,GTGTGTGTTGCGTGGTGGGGAGGAAGATCTCGAGCGGTTGCGGAGTCACCTAGTGCAG,3950 fluorescence intensity (a.u.)
14,AGGTTGATCTACTCTTGTCCAGTCATTTCTGCAGTTTGCCCGGAGTCACCTAGTGCAG,5890 fluorescence intensity (a.u.)
15,GCCGAACACCGACGCGGCGAGCGCAGCCACCACGTCCCCGCGGAGTCACCTAGTGCAG,3920 fluorescence intensity (a.u.)
16,TGGTTGTGACATCACCTGTGTAGCCTATACACCGTTGCTGCGGAGTCACCTAGTGCAG,4790 fluorescence intensity (a.u.)
17,TTAAACTTAATATATTAACGTGTAATCTTTTACGCGTTCACGGAGTCACCTAGTGCAG,3800 fluorescence intensity (a.u.)
18,TCTCCGCCGCCGCCGCCGCCGCCGTCGCCGCCGCCTGCCTCGGAGTCACCTAGTGCAG,3310 fluorescence intensity (a.u.)
19,GAATATCCGCCAATCACTTTCCCCTCCCACGGCGGCGGCGCGGAGTCACCTAGTGCAG,3210 fluorescence intensity (a.u.)
20,ACACATTCCATATCCTTGGACTAATTCACGAGACGAATCTCGGAGTCACCTAGTGCAG,40900 fluorescence intensity (a.u.)
21,AGGCATGAGGATGCAAAAGGATGACCGACTTGGTTGTCAGCGGAGTCACCTAGTGCAG,3720 fluorescence intensity (a.u.)
22,GGAAAGACCGATTGAGATAAGTCATTCGTGACGGACGCCTCGGAGTCACCTAGTGCAG,3420 fluorescence intensity (a.u.)
23,GCCAGGCGACGCGACGAGTCAGCTCAGCTCGCGCCCGCGGCGGAGTCACCTAGTGCAG,3700 fluorescence intensity (a.u.)
24,GCCAATTAACCAATCGGCGTCGTCAGGCCTCTCGCGTGTGCGGAGTCACCTAGTGCAG,3890 fluorescence intensity (a.u.)
25,CGAAAACGATCCACGCTGTCACACGCTCGAAGACCCGGAACGGAGTCACCTAGTGCAG,3690 fluorescence intensity (a.u.)
26,TCGGGTGACGCGTGTATATGCGCCACTATGTGGATGTGTTCGGAGTCACCTAGTGCAG,7400 fluorescence intensity (a.u.)
27,CTTGCATGACATCGTGTCCCACCTCCCCGCCAAGGACTCGCGGAGTCACCTAGTGCAG,9190 fluorescence intensity (a.u.)
